# Experimental data published in patent US20230257703A1, “NANOSCALE POLYMERIC MICELLAR SCAFFOLDS FOR RAPID AND EFFICIENT ANTIBODY PRODUCTION” (Iowa State University Research Foundation, Inc., priority 2020, published 2023).
# B1: ovalbumin (protein, UniProt P01012 2-386, looked up)
# Ovalbumin: GSIGAASMEFCFDVFKELKVHHANENIFYCPIAIMSALAMVYLGAKDSTRTQINKVVRFDKLPGFGDSIEAQCGTSVNVHSSLRDILNQITKPNDVYSFSLASRLYAEERYPILPEYLQCVKELYRGGLEPINFQTAADQARELINSWVESQTNGIIRNVLQPSSVDSQTAMVLVNAIVFKGLWEKAFKDEDTQAMPFRVTEQESKPVQMMYQIGLFRVASMASEKMKILELPFASGTMSMLVLLPDEVSGLEQLESIINFEKLTEWTSSNVMEERKIKVYLPRMKMEEKYNLTSVLMAMGITDVFSSSANLSGISSAESLKISQAVHAAHAEINEAGREVVGSAEAGVDAASVSEEFRADHPFLFCIKHIATNAVLFFGRCVSP
# notes: model antigen
# Test system: B cells from splenic cells of wild-type (WT) mice
# Experiment: CFSE B cell proliferation and viability, splenic cells of WT mice
# Assay type: cell-based
# Settings: groups alone
row,Molecule,"statistical significance from medium only control, FIG. 4"
1,hen egg white lysozyme [HEL],not significant from the medium only control
2,B1,not significant from the medium only control
